Non-standard residues stand in square brackets, D forms with d. *: point of attachment. Met(O) = CS(=O)CC[C@H](N)C(=O)O; Nle = CCCC[C@H](N)C(=O)O; Cbz = O=C(OCc1ccccc1)*; Boc = CC(C)(C)OC(=O)*; OBn = c1ccc(CO*)cc1
Test: general procedure: solution-phase peptide synthesis; DCC/HONB (ONB active esters)
Conditions: coupling step

Going from “Boc-Asp(OBzl)-Ser-Arg(MBS)-Arg(MBS)-Ala-Gln-Asp(OBzl)-Phe-Val-Gln-Trp-Leu-Met(O)-Asn-Thr-OBzl” to “Boc-Asp(OBzl)-Ser-Arg(MBS)-Arg(MBS)-Ala-OH”, the step yield falls from 61.1% to 51.5%.

First: Boc-D(OBn)FVQW-OH
Second: Boc-Gln-Asp(OBzl)-Phe-Val-Gln-Trp-Leu-Met(O)-Asn-Thr-OBzl
The step yield of the first is lower: 58.1% for the first, 76.8% for the second.

First: Boc-L[Met(O)]NT-OBn
Second: Boc-L[Nle]NT-OBn
The step yield of the first is lower: 83.4% for the first, 83.8% for the second.

Compared with Boc-QD(OBn)FVQW-OH, Boc-Ser-Arg(MBS)-Arg(MBS)-Ala-OBu^t is lower in step yield: 82.6% for the first, 79.0% for the second.

Substance Cbz-FVQW-OH has a step yield of 84.5%.
